# Assay results: PubChem BioAssay AID1439 (NMMLSC, 2008)
# Amino acid sequences for entries named in this document (tags omitted).
# UniProt P09471, whole entry, looked up: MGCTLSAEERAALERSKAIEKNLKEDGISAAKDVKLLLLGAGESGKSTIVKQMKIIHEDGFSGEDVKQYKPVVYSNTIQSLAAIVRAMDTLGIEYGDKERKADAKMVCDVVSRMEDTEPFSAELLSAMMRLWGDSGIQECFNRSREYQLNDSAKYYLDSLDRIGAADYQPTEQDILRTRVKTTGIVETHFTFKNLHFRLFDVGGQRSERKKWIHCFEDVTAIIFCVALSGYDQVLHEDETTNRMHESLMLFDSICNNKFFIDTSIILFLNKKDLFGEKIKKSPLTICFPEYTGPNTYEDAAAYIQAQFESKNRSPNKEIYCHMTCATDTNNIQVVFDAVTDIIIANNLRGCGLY
# Among all 220,000 compounds or so, about 770 (0.35%) were called active. Inconclusive results, whose numbers are uncertain, are shown with a selection of clear calls. Cut-off read from the data, not from the text of the source: active = binding response below about 49% or above about 150%; inconclusive = no clear call, values can overlap the other calls; inactive = in between.
# Biological target: Guanine nucleotide-binding protein G(o) subunit alpha (Homo sapiens) (UniProt P09471)
# Assay: RGS7-Galphao binding modulators, primary screen, biochemical, multiplexed bead flow cytometry (AID 1439);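 note: fluorescent Galphao held in activated GDP-AlF4 state binding bead-coupled RGS7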
# Conditions: at 10 µM, actives lie on both sides
row,Structure (SMILES),binding response (% of control)
1,Cc1ccc(N(Cc2cc3ccc(C)cc3[nH]c2=O)C(=O)c2ccco2)cc1,inconclusive: 35.3%
2,Cc1ccc(CSCCNC(=O)CN(c2cccc([N+](=O)[O-])c2)S(C)(=O)=O)cc1,inconclusive: 112%
3,O=C(O)/C=C/c1ccc(-n2ccnc2)cc1,inconclusive: 223%
4,Cc1cc(C)cc(N(C(=O)c2sc(C)nc2C)C(C(=O)NC(C)(C)C)c2ccncc2)c1 (configuration not stated),inactive: 102%
5,Cc1cc(C)c2c(N)c(C(=O)NNC(=O)c3ccccc3)sc2n1,inactive: 103%
6,O=C(CN1CCN(Cc2ccccc2)CC1)N1CCN(c2ccccc2)CC1,inconclusive: 157%
7,Cc1ccc(-c2c[nH]c(=S)n2-c2ccccc2)cc1,inconclusive: 98.9%
8,CC(C)Nc1cc(C(F)(F)F)nc(-c2ccccn2)n1,active: 274% [activator]
9,Cc1ccccc1C(=O)Nc1ccc(O)c2c(=O)cc(-c3ccccc3Cl)oc12,inconclusive: 116%
10,COc1cc(OC)c(NS(=O)(=O)c2cccc(C(=O)OCC(=O)NCC3CCCO3)c2)cc1Cl (configuration not stated),inconclusive: 123%
11,NNC(=O)CS(=O)(=O)c1ccc(Cl)cc1,inconclusive: 96.2%
12,COc1cccc(CNC(=O)CCC2CCCN(c3cc(C)nc(N)n3)C2)c1 (configuration not stated),inactive: 94.4%
13,COc1cc(NC(=O)CSc2nnc(NC(C)C)s2)cc(OC)c1OC,inconclusive: 91.9%
14,C=CCNc1nc(Nc2ccc(OC)cc2OC)nc(OCC)n1,inactive: 137%
15,COc1ccc(-n2c(SCC(N)=O)nc3nc4c(cc3c2=O)COC(C)(C)C4)cc1,inactive: 79.5%
16,COc1ccc(-n2c(C)nc(N)c2C(=O)c2ccccc2)cc1,inconclusive: 82.7%
17,CC(CC(=O)O)CC(=O)Nc1nncs1 (configuration not stated),inconclusive: 92.2%
18,C=CCn1c(-c2ccc3ncccc3c2)n[nH]c1=S,inconclusive: 103%
19,C=C(C)C(=O)Nc1cccc(C2=NOC3(C2)C[C@@H](C(N)=O)N(C(=O)c2ccc(OC)cc2)C3)c1 (some centres not stated),inconclusive: 97.3%
20,Cc1ccc(/C=C/c2ccc(=O)n(Cc3ccccc3Cl)n2)cc1,inactive: 101%
21,CC(C)N(Cc1ccccc1)C(=S)Nc1ccccc1F,inconclusive: 133%
22,O=C(NNc1c(Cl)cccc1Cl)c1ccno1,inconclusive: 93.2%
23,CC(C)CNC(=O)COC(=O)CCC(=O)c1ccc(Cl)cc1,inactive: 98.7%

# Four compounds picked at random from those above:
row,Structure (SMILES),binding response (% of control)
8,CC(C)Nc1cc(C(F)(F)F)nc(-c2ccccn2)n1,active: 274% [activator]
7,Cc1ccc(-c2c[nH]c(=S)n2-c2ccccc2)cc1,inconclusive: 98.9%
11,NNC(=O)CS(=O)(=O)c1ccc(Cl)cc1,inconclusive: 96.2%
23,CC(C)CNC(=O)COC(=O)CCC(=O)c1ccc(Cl)cc1,inactive: 98.7%

# Later entries

row,Structure (SMILES),binding response (% of control)
1,CN(C)c1ccc(-c2noc(C3CCN(C(=O)Nc4ccc(Cl)cc4)CC3)n2)cc1,inconclusive: 95%
2,COc1cccc(NC(=O)N(CCN(C)C)C(C)c2cccnc2)c1 (configuration not stated),inconclusive: 102%
3,Cc1cc(N/N=C/c2ccc(N(C)C)cc2)nc(NCc2ccccc2)n1,inconclusive: 92.2%
4,c1ccc(-c2nc(-c3ccco3)n3ccccc23)cc1,active: 0.6%
5,Cc1ccc(NC(=O)CSC(C)C(=O)NCCc2ccccn2)cc1 (configuration not stated),inconclusive: 104%
6,O=C(CCc1ccccc1)c1nnc(-c2ccccc2)o1,inactive: 97.2%
7,CCOc1cc(-c2nc3ccccc3s2)ccc1O,inconclusive: 98.7%
8,CC(=O)N(C(C)=O)N1C(=O)/C(=C/c2ccc(Cl)cc2)SC1=S,inconclusive: 92.6%
9,Cc1c(N=N/C(C(=O)Nc2ccccc2)=C(/O)c2ccccc2)c(=O)n(-c2ccccc2)n1C,inconclusive: 116%
10,COC(=O)CC(CP(=O)(O)CN(C)C=O)C(=O)OC (configuration not stated),inconclusive: 119%
11,COc1ccc(OC)c(/C=N/Nc2cc(C)nc(N3CCOCC3)n2)c1,inconclusive: 123%
12,COc1cccc(CN2CCNC(=O)C2CC(=O)NCCn2nc(C)cc2C)c1OC (configuration not stated),inconclusive: 95.2%
13,COc1ccccc1Cn1c(CO)nc2ccccc21,inconclusive: 85%
14,CN(c1ccccc1)c1nc2ccsc2c(=O)s1,active: 247% [activator]
15,C/C(=N\Nc1ccc(S(N)(=O)=O)cc1[N+](=O)[O-])c1ccco1,inconclusive: 71.1%
16,N/C(=N\OC(=O)COc1ccc(Br)cc1)c1cccc([N+](=O)[O-])c1,inconclusive: 54%
17,COC(=O)[C@@H]1C[C@H]2CC[C@H](O)C[C@H]2N1Cc1ccc(-c2ccccc2)cc1,inconclusive: 90.6%
18,CC(=O)Nc1cc2cc(NS(=O)(=O)c3ccc(Cl)cc3)ccc2oc1=O,inconclusive: 99.6%
19,CCC(C)NCC(=O)Nc1ccc([N+](=O)[O-])cc1C(=O)Nc1ccccc1F (configuration not stated),inconclusive: 107%
20,Cc1cc(CNC(=O)COc2ccc(F)cc2)c2ccccc2n1,inconclusive: 109%
21,Cc1ccc(NC(=O)Nc2ccc3c(c2)OCO3)nc1,inconclusive: 79%
22,CCN(CC)C(=O)n1cnc(-c2ccccc2)c1-c1ccccc1,inactive: 104%
23,[O-]/C(=C(\C(=S)NCc1ccc2c(c1)OCO2)[n+]1ccccc1)c1ccc(Cl)s1,inconclusive: 90.8%

row,Structure (SMILES),binding response (% of control)
1,C/C(Cc1ccccc1)=N\NC(=O)CCCCCC(=O)N/N=C(\C)Cc1ccccc1,inactive: 101%
2,COc1ccc(Cl)cc1CN1CCOCC1,inconclusive: 104%
3,COC(=O)c1c(NC(=O)CSc2nnc(C)c(=O)[nH]2)sc(C)c1C,inactive: 109%
4,CCn1cc(CNCc2cn(C)nc2-c2ccc(C3CCCCC3)cc2)cn1,inactive: 93.5%
5,CCc1nc(SCC(=O)c2ccccc2)c2ccccc2n1,inactive: 100%
6,CCn1c(=O)c2cc(C(=O)Nc3ccccc3OC)sc2c2ccccc21,inconclusive: 35.5%
7,CCOc1nc(C)cc(C)c1S(=O)(=O)c1ccc(Cl)cc1,inconclusive: 123%
8,Cn1c(=O)c(NCCO)c2c3c(cccc31)C(=O)c1ccccc1-2,inactive: 99.9%
9,COC(=O)c1ccc(/C=C/C(=O)O)cc1,inconclusive: 82.2%
10,Cc1[nH][nH]c(=O)c1C=Nc1ccc(C(F)(F)F)cc1,inconclusive: 108%
11,Oc1cc(-n2cccn2)c(O)cc1-n1cccn1,inconclusive: 71.9%
12,CCCCN(C(=O)c1cc(=O)[nH]c2ccccc12)c1c(N)n(CCC)c(=O)[nH]c1=O,inconclusive: 113%
13,Cn1ccnc1SCC(=O)N1CCN(S(=O)(=O)c2ccccc2)CC1,inconclusive: 109%
14,Cc1ccc(/C=N/NC(=O)C(O)c2ccccc2)o1 (configuration not stated),inconclusive: 117%
15,COc1ccc(CCN=C(N)NS(=O)(=O)c2ccc3ccccc3c2)cc1,inactive: 97.3%
16,Cc1cc(=O)oc(C)c1C(=O)NCCCN1CCN(c2ccccc2F)CC1,inactive: 104%
17,Cc1nn(-c2ccccc2)c(Cl)c1C(=O)NCCN(C)C,inactive: 94.4%
18,CCCn1c(SCC(=O)Nc2cc(S(=O)(=O)N(C)C)ccc2OC)n[nH]c1=O,inconclusive: 80.8%
19,Cc1ccc2c(c1)C1CN(C)CCC1N2C(=S)Nc1ccc(Cl)cc1Cl (configuration not stated),inconclusive: 100%
20,CN(C)c1ccc(CN(C(=O)/C=C/c2ccco2)C2CCS(=O)(=O)C2)cc1 (configuration not stated),inconclusive: 138%
21,COC(=O)CC1C(=O)NCCN1C(=O)CSc1nc2cc(Cl)ccc2o1 (configuration not stated),inconclusive: 89%
22,COc1ccc(/C=C/c2ccccc2)cc1[C@H]1[C@@H]2C=CCC[C@@]2(C)C(=O)N1Cc1ccccc1,inconclusive: 57.1%
23,Fc1ccc(C2c3[nH]c4ccccc4c3CCN2CCCn2cccn2)cc1 (configuration not stated),inconclusive: -18.9%

row,Structure (SMILES),binding response (% of control)
1,O=C(Nc1ccn(Cc2cccc3ccccc23)n1)c1cccnc1,inconclusive: 87.6%
2,Cc1ccc(C(=O)CSc2nnc3ccccn23)c(C)c1,inconclusive: 112%
3,CC1CCN(C2CC(=O)N(c3ccc(Br)cc3Br)C2=O)CC1 (configuration not stated),inconclusive: 91.8%
4,Cc1ccc(N2C(=O)C(Cc3ccccc3)NC2=S)cc1 (configuration not stated),inactive: 99%
5,S=C1COC(c2ccccc2)N1c1ccccc1 (configuration not stated),inactive: 92%
6,NC(=O)C1CCN(C(=O)c2ccc3nc(N4CCCCC4)sc3c2)CC1,inconclusive: 106%
7,CCCC1=C(C(=O)OCC)C(c2c(C)nn(-c3ccccc3)c2Cl)C(C#N)=C(N)O1 (configuration not stated),inactive: 98.3%
8,CCOc1ccc(/C=c2\sc3nc(-c4ccco4)nn3c2=O)cc1OCC,inactive: 87.5%
9,COC(=O)c1ccc(N2CCN(C(C)=O)CC2)c(NC(=O)COc2ccccc2C)c1,inactive: 101%
10,COC(=O)c1cn(NC(=O)c2ccc([N+](=O)[O-])cc2Cl)c(=O)c2ccccc12,inconclusive: 110%
11,Cn1cnc([N+](=O)[O-])c1SCCO,inconclusive: 17.7%
12,Cc1cccc(N2CCN(C(=O)CCN3C(=S)NC(C)(C)CC3C)CC2)c1C (configuration not stated),inconclusive: 122%
13,Cn1cc(Cl)c(-c2n[nH]c(=S)n2C2CCCCC2)n1,inactive: 110%
14,Cn1c(SCc2ccc(Cl)cc2)nnc1-c1ccc2nonc2c1,inconclusive: 228%
15,Cc1c(Cl)cccc1NC(=S)NCc1ccco1,inconclusive: 102%
16,CC(C)(C)C(=O)Nc1cc(C(F)(F)F)ccc1-n1ccnc1,inconclusive: 92.2%
17,CCNC(=S)N(Cc1ccc2c(c1)OCO2)C1CC(=O)N(c2ccc(OC)cc2)C1=O (configuration not stated),inactive: 82.3%
18,CC(NC(=O)c1ccc(S(=O)(=O)C(F)F)cc1)c1ccccc1 (configuration not stated),inconclusive: 108%
19,CCC(=O)NC(=S)Nc1ccc(Cl)cn1,inactive: 93.6%
20,COCCCN(CC(=O)O)S(=O)(=O)c1ccccc1,inconclusive: 83.1%
21,CCOC(=O)c1nc(C)nc(Sc2n[nH]c(-c3cc(Cl)cc(Cl)c3)n2)c1C,inconclusive: 97%
22,O=C(NCCSCc1ccc(Cl)cc1)c1cccs1,inconclusive: 87.4%
23,O=C(c1ccccc1F)N1CCN(c2ccc([N+](=O)[O-])c(NCc3cccnc3)c2)CC1,inconclusive: 235%

# As entered above.
# Entry of Cc1cccc(N2CCN(C(=O)CCN3C(=S)NC(C)(C)CC3C)CC2)c1C (configuration not stated) under binding response (% of control): inconclusive: 122%
# Entry of O=C(NCCSCc1ccc(Cl)cc1)c1cccs1 under binding response (% of control): inconclusive: 87.4%
# Entry of Cn1cnc([N+](=O)[O-])c1SCCO under binding response (% of control): inconclusive: 17.7%
